The assay is described as follows: qHTS Assay for Lipid Storage Modulators in Drosophila S3 Cells.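 On cell number change: cells counted by Cell Tracker Red CMTPX staining in the red channel.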 The settings on record: BODIPY lipid droplet fluorescence, 18-24 h; for cell number change: measured here: cell count max response, cells fed with added oleic acid. Summed up: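 Drosophila S3 cells loaded with oleic acid (400 uM, as added) and compounds at several concentrations; lipid droplets imaged by 488-nm laser-scanning cytometry, 500–530 nm intensity and object ratio to cell channel. Percent activity normalized to 20 uM Triacsin C.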
For orientation: qHTS replaces the single test concentration by a dilution series.

Where [1] appears, read: measured here: lipid fluorescence (Fed channel) AC50, cells fed with added oleic acid.
[2] abbreviates: measured here: cell number channel AC50, cells fed with added oleic acid.

The term AC50 denotes the concentration at which the activity in the assay is half-maximal.

Where “and” joins values, the source holds several entries; their conditions need not be identical. Equal values may be shown once. The list shows a part of the results. Shown are side measurements of this screen, not its main read-out; they come without a call. Compounds called inactive in the main read-out are mostly missing here. Potencies come from curve fits of mixed quality, noted in brackets.

Take `Cc1cc(N)n2nc(-c3ccccc3)c(-c3ccccc3)c2n1`: the cell number change is -15.3%. Also, the AC50 under setting [1] was 0.366 µM [rising, full curve].
As for `CCOC(=O)Cc1c(C)[nH]c(=S)[nH]c1=O`, the cell number change came to 6.17%. In addition, the AC50 under setting [1] was 4.61 µM [falling, single point].
Consider `C[C@@]12C(=O)Nc3ccc(Br)cc3C(=O)N1[C@H]1c3cc(Cl)ccc3OC[C@@H]1[C@@H]2c1ccccc1`, for which the cell number change was 3.76%. The half-maximal activity concentration (AC50) under setting [2] was 0.103 µM [falling, full curve, poor fit]. The AC50 under setting [1] is 0.103 µM [falling, full curve, poor fit].
With `CC(=O)Nc1ccc(C2(O)COc3ccccc3O2)cc1` (configuration not stated), the cell number change is -6.63%.
In the case of `Cc1cc(C)c2c(CN3CCC(C)CC3)cc(=O)oc2c1C`, the cell number change turned out to be 116%. In addition, the AC50 under setting [2] is 23.1 µM [rising, partial curve]. Under setting [1], the half-maximal activity concentration (AC50) was 29.1 µM [rising, single point].
Consider `COCc1c(C(=O)OCC(=O)N(C)C2CCS(=O)(=O)C2)oc2ccccc12` (configuration not stated), for which the cell number change is 21.7%. In addition, under setting [1], the AC50 is 20.6 µM [rising, single point].
In the case of `S=c1[nH]nc(CCc2ccccc2)n1Cc1ccccc1`, the cell number change amounted to 1.62%. In addition, the AC50 under setting [1] was 6.51 µM [rising, single point].
As for `CCC(C)/C(C)=N/NC(=O)C1COc2ccccc2O1` (configuration not stated), the cell number change turned out to be 3.33%. The AC50 under setting [1] was 7.31 µM [rising, partial curve].
Turning to `O=[N+]([O-])c1ccc(-c2cnc3ccccc3n2)cc1`, the cell number change is -0.647%. Further, the concentration at half-maximal activity (AC50) under setting [1] is 0.651 µM [falling, partial curve, poor fit].
As for `COc1nc(-c2ccccc2)ccc1-c1noc(C)n1`, the cell number change stood at 52%. For the same compound, the AC50 under setting [2] was 23.1 µM [rising, partial curve, poor fit]. The AC50 under setting [1] was 3.26 µM [rising, full curve].
Regarding `O=C(C(Cl)Cl)N1CCN(c2ccccn2)CC1`, the cell number change was -83.3%. Also, the AC50 under setting [2] was 29.1 µM [falling, partial curve, poor fit].
For `COc1ccc(OC)c(CN2CCCC(C(=O)N3CCCCC3)C2)c1` (configuration not stated), the cell number change stood at 1.56%. For the same compound, the AC50 under setting [1] was 6.51 µM [falling, single point].
Turning to `O=C(NCc1ccccc1)C1c2ccccc2Oc2ccccc21`, the cell number change was 49.2%. For the same compound, the AC50 under setting [2] was 2.06 µM [rising, partial curve, poor fit]. Moreover, the AC50 under setting [1] is 3.66 µM [falling, single point].
In the case of `N/C(=N\S(=O)(=O)c1cc(C(F)(F)F)cc(C(F)(F)F)c1)c1ccc(Cl)cc1`, the cell number change is -5.55%. Under setting [2], the AC50 is 6.51 µM [falling, single point]. Further, the AC50 under setting [1] is 6.51 µM [falling, single point].
For `Cn1nc(C(=O)N2CCN(S(=O)(=O)c3ccc(Cl)cc3)CC2)c2ccccc2c1=O`, the cell number change was -50.2%. In addition, the AC50 under setting [2] is 18.4 µM [falling, partial curve, poor fit]. Further, under setting [1], the AC50 was 29.1 µM [falling, single point].
Consider `CCn1cc(C(=O)NCc2cccnc2)c(=O)c2cc(F)c(N3CCN(C(=O)c4ccco4)CC3)cc21`, for which the cell number change was determined as 14.9%. For the same compound, the AC50 under setting [1] was 6.51 µM [rising, single point].
Regarding `COCCC(=O)NC1CCCc2c1cnn2-c1cccc(C)c1C` (configuration not stated), the cell number change was -12.5%. The AC50 under setting [1] was 29.1 µM [falling, single point].
On to `Cc1[nH]c(=O)[nH]c(=O)c1S(=O)(=O)N1CCN(c2ccccc2)CC1`, for which the cell number change was -2.97%. The AC50 under setting [1] was 20.6 µM [falling, single point].
Take `CC(=O)Oc1ccc(/C=N\NC(=O)c2cc3c(ccc4ccccc43)o2)cc1`: the cell number change was -1.36%.
Take `Cc1ccnc(NC(=O)CC(c2ccccc2)c2ccccc2)n1`: the cell number change turned out to be 26.4%. Also, the AC50 under setting [1] is 0.1 µM [rising, full curve, poor fit].
As to `O=C(CCNS(=O)(=O)c1ccccc1)N1CCN(C(c2ccccc2)c2ccccc2)CC1`, the cell number change is 45.8%. Besides, the AC50 under setting [2] was 25.9 µM [rising, partial curve, poor fit]. Further, under setting [1], the AC50 was 6.51 µM [rising, single point].
For the compound `CN(C(=O)c1ccccc1)c1ccccc1C(=O)NCCc1ccccc1`, the cell number change was 26.5%.
Still for that read-out and setting: under `CN(C)S(=O)(=O)c1cccc(NC(=O)c2n[nH]c(=O)c3ccccc23)c1` stands 12.6%.
`Cc1nn(C)c(C(=O)N/N=C/c2cccc(Oc3ccccc3)c2)c1Br`: the cell number change was -36.1%. Besides, under setting [2], the AC50 is 13 µM [falling, single point].
`COc1cccc(OC)c1C(=O)Nc1ccc(Br)c(C(=O)c2ccccc2)c1`: the cell number change was 41.6%. Moreover, the AC50 under setting [2] is 1.84 µM [rising, full curve, poor fit].
For the compound `CCOc1ccc(N2C(=O)CC(NC3CCN(C(=O)c4ccc(F)cc4)CC3)C2=O)cc1` (configuration not stated), the cell number change was 30.7%. In addition, the AC50 under setting [2] was 29.1 µM [rising, single point].
For the compound `CC(C)(CNC(=O)CO/N=C1/C=C2CCC3C(C(O)C[C@@]4(C)C3CC[C@]4(O)C(=O)CO)[C@@]2(C)CC1)C(O)C(=O)O` (some centres not stated), the cell number change stood at 25%. Besides, the AC50 under setting [1] was 6.51 µM [rising, single point].
With `COc1cccc(C(=O)OCC(=O)NCCCc2ccccc2)c1`, the cell number change was found to be 14.8%. The AC50 under setting [1] is 6.51 µM [rising, single point].
As to `CCCCN(CCCC)S(=O)(=O)c1ccc(SCC(=O)OCC)c([N+](=O)[O-])c1`, the cell number change amounted to 38.3%. The AC50 under setting [2] is 29.1 µM [rising, single point].
Regarding `CN(C)S(=O)(=O)c1ccc2nnn(OCC(=O)NC34CC5CC(CC(C5)C3)C4)c2c1`, the cell number change was -25.8%. In addition, the AC50 under setting [1] was 13 µM [falling, partial curve].
As to `COc1cccc(CN(Cc2ccccc2F)S(=O)(=O)c2ccc(S(=O)(=O)NCc3ccccc3)cc2)c1`, the cell number change was found to be 3.12%.
Take `O=C(CSc1nc(-c2ccccc2)cs1)NC(=O)NCc1ccco1`: the AC50 runs as follows: under setting [2], 5.8 µM [falling, partial curve, poor fit]; under setting [1], 13 µM [falling, partial curve, poor fit].
With `O=S(=O)(NC1CCCCC1N1CCC(O)CC1)c1ccccc1` (configuration not stated), the cell number change stood at 2.78%. Also, the AC50 under setting [1] is 29.1 µM [falling, single point].
Regarding `Cc1cc(-c2ccccc2)nc(Oc2cccc(C(F)(F)F)c2)c1S(C)(=O)=O`, the cell number change stood at 8.29%.
For `CN(CC(=O)Nc1cccc(F)c1)C(=O)c1ccc(N2C(=O)c3ccccc3C2=O)cc1`, the cell number change stood at 65.9%. Also, the AC50 under setting [2] was 20.6 µM [rising, single point].
Take `Cc1ccc(NC(=S)Nc2ccc3[nH]c(=O)[nH]c3c2)cc1C`: the cell number change was -33.8%. Besides, under setting [2], the AC50 was 0.103 µM [falling, full curve, poor fit].
Regarding `O=C(/C=C/Nc1ccc(F)cc1)c1ccc(Oc2ncccn2)cc1`, the cell number change is 39.7%. The AC50 under setting [2] is 1.64 µM [rising, full curve, poor fit]. Besides, the AC50 under setting [1] is 1.84 µM [rising, partial curve].
With `CC1=C(C(=O)OCc2ccccc2)C(c2cccc([N+](=O)[O-])c2)NC(=O)N1C` (configuration not stated), the cell number change was -38.4%. Besides, the AC50 under setting [2] was 14.6 µM [falling, single point].
For the compound `CC1(C)CC(=O)c2sc(NS(=O)(=O)c3ccc(Br)cc3)nc2C1`, the cell number change was -9.27%. Moreover, the AC50 under setting [1] is 0.651 µM [falling, partial curve, poor fit].
In the case of `Cc1ccc(OCCCNC2CCCC2)cc1`, the cell number change came to 96.1%. For the same compound, the AC50 under setting [2] was 29.1 µM [rising, single point]. The AC50 under setting [1] is 16.4 µM [rising, partial curve].
With `NS(=O)(=O)c1ccc(Nc2nc(-c3cccnc3)cs2)cc1`, the cell number change was -17.3%. Further, the AC50 under setting [1] is 0.461 µM [rising, single point].
`Cc1ccc(S(=O)(=O)N(C)C)cc1NC(=O)CN1C(=O)NC2(CCCc3ccccc32)C1=O` (configuration not stated): the AC50 under setting [1] was 1.46 µM [rising, partial curve].
Consider `COc1ccc2cc(S(=O)(=O)N3CCOCC3)ccc2c1`, for which the cell number change amounted to 42.6%. In addition, under setting [2], the AC50 was 29.1 µM [rising, single point]. For the same compound, under setting [1], the AC50 was 29.1 µM [rising, single point].
For `O=C(CN1C(=O)CC(c2ccccc2)=Nc2ccccc21)NC1CCCCC1`, the cell number change was -20%. Moreover, the AC50 under setting [1] was 0.0146 µM [falling, full curve, poor fit].
Take `O=C(O)c1c(Cl)nc2ccccn12`: the AC50 under setting [1] is 2.59 µM [falling, full curve].
For `CC(C)OC(=O)CSc1nnc2c(n1)[nH]c1ccc(F)cc12`, the cell number change was determined as 10.5%. Moreover, the concentration at half-maximal activity (AC50) under setting [1] was 16.4 µM [rising, single point].
On to `COc1ccc(CCNC(=O)CSc2nc(-c3ccco3)cc(C(F)(F)F)n2)cc1OC`, for which the cell number change turned out to be 13.5%. In addition, under setting [1], the AC50 is 1.84 µM [rising, partial curve].
With `COc1cc2c(cc1OC)CN(C(=O)/C=C/c1ccc(F)cc1)CC2`, the cell number change amounted to 8.82%.
`CCCCCn1c(SCCOCC)nc2c1c(=O)[nH]c(=O)n2C`: the cell number change turned out to be 32.6%.
On to `Cc1nc(SCC(=O)NCc2ccco2)c2c3c(sc2n1)CCCC3`, for which the cell number change is -23.8%.
Consider `Cc1ccsc1/C=C1\SC(=S)N(CC2CCCO2)C1=O` (configuration not stated), for which the cell number change is -29.3%. Moreover, the AC50 under setting [2] was 0.517 µM [falling, partial curve, poor fit]. For the same compound, the AC50 under setting [1] was 25.9 µM [falling, partial curve, poor fit].
For `O=C(Oc1ccccc1)N1CCOCC1`, the cell number change was 0.794%. The AC50 under setting [1] was 0.13 µM [falling, full curve].
Consider `CN(C)CCCNCCCNC(=O)c1ccccn1`, for which the cell number change is -8.12%.
On the same count and under the same terms, under `CCN1C(=NCCCCO)N[C@@H](c2cccc(C(F)(F)F)c2)C(C(=O)OC)=C1C` stands -7.78% and 16%.
With `CC(=O)Nc1ccc(-c2cn3c(n2)SCC3)cc1`, the AC50 is 0.366 µM [falling, partial curve, poor fit] under setting [2] and 2.06 µM [falling, partial curve, poor fit] under setting [1].
As for `CC(C)COC(=O)c1ccccc1N1C(=O)C2C3CCC(C3)C2C1=O` (configuration not stated), the cell number change was -0.958%. Besides, the AC50 under setting [1] is 4.61 µM [rising, single point].
In the case of `COc1ccc(C(c2nnnn2C(C)(C)C)N2CCN(c3nc4ccccc4s3)CC2)cc1` (configuration not stated), the cell number change was -17.5%. Further, the AC50 under setting [1] was 0.731 µM [falling, full curve, poor fit].
Consider `Cc1cccc(CNc2ccc(S(=O)(=O)N3CCCCC3)cc2)c1`, for which the cell number change was -13.2%. Also, the AC50 under setting [1] was 29.1 µM [falling, single point].
For `CCOc1cccc(-c2c(C(=O)N/N=C(\C)c3cccnc3)nnn2-c2nonc2N)c1`, the cell number change was -19.2%. Also, the AC50 under setting [2] is 1.84 µM [falling, partial curve]. The AC50 under setting [1] was 6.51 µM [falling, partial curve, poor fit].

For the origin of these results see PubChem BioAssay AID2685 (National Center for Advancing Translational Sciences (NCATS), 2010).
